Results: article PMC6861704
Numbering of substitutions follows the chain as printed. Results are given in words; binding and its absence hold for the method and conditions named. Binding seen in cells or lysates may run through a third protein. Some results given as binding are weak or reduced against the parent protein; the word gives no strength. Where a sequence is shown, tags or fusion partners need not be part of it.

By UniProt entry, the sequences of proteins in these tests, tags left out.
UniProt P25694: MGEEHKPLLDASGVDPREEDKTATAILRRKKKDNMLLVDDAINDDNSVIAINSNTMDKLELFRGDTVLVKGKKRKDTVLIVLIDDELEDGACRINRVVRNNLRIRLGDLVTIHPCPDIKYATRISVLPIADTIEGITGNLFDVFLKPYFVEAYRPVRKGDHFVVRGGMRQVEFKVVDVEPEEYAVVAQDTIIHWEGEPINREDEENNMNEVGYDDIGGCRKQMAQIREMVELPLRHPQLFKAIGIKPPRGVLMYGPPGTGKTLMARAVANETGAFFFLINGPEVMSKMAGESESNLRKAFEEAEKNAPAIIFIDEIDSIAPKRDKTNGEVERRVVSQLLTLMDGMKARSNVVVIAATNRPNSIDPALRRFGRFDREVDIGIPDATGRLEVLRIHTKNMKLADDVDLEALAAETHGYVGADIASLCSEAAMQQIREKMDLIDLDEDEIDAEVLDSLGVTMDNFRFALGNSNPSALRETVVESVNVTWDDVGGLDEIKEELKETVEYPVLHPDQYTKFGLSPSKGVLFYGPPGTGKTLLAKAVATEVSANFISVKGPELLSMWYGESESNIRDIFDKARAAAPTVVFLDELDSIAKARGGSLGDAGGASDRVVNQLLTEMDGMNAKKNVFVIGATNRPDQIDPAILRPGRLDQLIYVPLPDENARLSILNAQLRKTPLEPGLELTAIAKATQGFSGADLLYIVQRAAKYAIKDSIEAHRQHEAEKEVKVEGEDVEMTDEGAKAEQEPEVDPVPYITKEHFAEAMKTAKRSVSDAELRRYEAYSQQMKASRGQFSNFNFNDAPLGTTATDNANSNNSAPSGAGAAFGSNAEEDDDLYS

What was measured:
Test in all cases: co-IP; HA-Fzo1 variants expressed in Δfzo1 cells; crude membrane fraction solubilized with 0.2% NG310 in TBS; HA-Fzo1 immunoprecipitated overnight at 4°C (methods name Flag-coupled beads); washed with 0.2% NG310 in TBS; blots with HA- and Cdc48-specific antibodies
[1] = target: T1, HA-Fzo1^K464R (S. cerevisiae) (UniProt P38297)
T1 sequence: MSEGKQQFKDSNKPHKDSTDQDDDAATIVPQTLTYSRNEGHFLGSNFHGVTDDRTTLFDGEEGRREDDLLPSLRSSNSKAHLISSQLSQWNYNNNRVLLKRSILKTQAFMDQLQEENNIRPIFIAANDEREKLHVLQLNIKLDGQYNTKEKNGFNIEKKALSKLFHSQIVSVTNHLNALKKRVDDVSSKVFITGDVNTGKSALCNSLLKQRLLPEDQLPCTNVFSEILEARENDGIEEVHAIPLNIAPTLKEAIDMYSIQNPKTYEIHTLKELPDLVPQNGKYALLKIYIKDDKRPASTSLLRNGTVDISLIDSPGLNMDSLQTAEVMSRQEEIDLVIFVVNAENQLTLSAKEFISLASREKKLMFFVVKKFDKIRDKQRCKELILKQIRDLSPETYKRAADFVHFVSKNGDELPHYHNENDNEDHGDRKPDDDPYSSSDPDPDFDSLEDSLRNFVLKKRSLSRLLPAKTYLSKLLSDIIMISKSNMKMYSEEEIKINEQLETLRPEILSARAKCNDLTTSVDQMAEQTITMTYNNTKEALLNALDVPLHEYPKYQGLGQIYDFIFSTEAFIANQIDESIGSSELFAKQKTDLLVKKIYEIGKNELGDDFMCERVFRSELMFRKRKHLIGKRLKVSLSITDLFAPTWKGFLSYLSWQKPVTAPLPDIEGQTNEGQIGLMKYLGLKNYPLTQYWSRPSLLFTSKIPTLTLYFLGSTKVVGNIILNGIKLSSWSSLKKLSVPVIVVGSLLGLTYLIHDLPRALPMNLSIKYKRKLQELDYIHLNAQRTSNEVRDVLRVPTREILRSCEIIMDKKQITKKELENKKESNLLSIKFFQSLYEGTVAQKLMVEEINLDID

[2] = target: T2, HA-Fzo1^R182E;D335K;K464D (S. cerevisiae) (UniProt P38297)
T2 sequence: T1 sequence with R182E, D335K, R464D

[3] = target: T3, HA-Fzo1 (wild type) (S. cerevisiae) (UniProt P38297)
T3 sequence: T1 sequence with R464K

Cdc48 (from UniProt P25694 1-835)
binding [1]: no binding | binding [2]: binds | binding [3]: binds
